According to PubChem BioAssay AID256 (DTP/NCI, 2004):
The list shows only some results of the screen, not a fair sample: it is rich in T/C values a quarter to a half above the control, in often repeated tests (any T/C) and in doses without a T/C. Further doses and runs are listed elsewhere. T/C gives the treated animals as a percentage of the vehicle group. Some entries give survivors of the animals treated and no T/C: the source files T/C as zero there, which appears to mark a toxic dose or a test without result, not a measured value. Some survivor counts are full or nearly so, which does not show that the dose was tolerated: the source hardly ever lists a survival T/C far under the control, and the zero likely stands for such cases as well. Survivors were counted at the toxicity check, usually on the fifth day, unless a day is given; later deaths do not show. Schedule codes are those of the source, read here as Q, the interval in days (D) or hours (H), X, the number of doses. Some molecules as drawn cover several salts, stereoisomers or complexes of the source; a dose is that of the sample tested. Some entries hold several experiments; the values are given in rising order. Where survival is the endpoint, this PubChem deposit counts one and a half times the control or more as active, and values a quarter to a half above the control carry no call in these data; other NCI protocols may use other cut-offs. Some T/C values are followed by the survivors on the day toxicity was checked, most often the fifth; without a count, all were alive then.

System: CD2F1 mice, L1210 leukemia ip, survival T/C
Assay: NCI In Vivo Anticancer Drug Screen. Data for tumor model L1210 Leukemia (intraperitoneal) in CD2F1 (CDF1) mice
Conditions: higher T/C = longer survival
In short: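 Vehicle-treated tumor-bearing mice served as controls (C) for compound-treated mice (T). Reported figure is T divided by C.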

[1] = T/C endpoint: mean survival time, dose: 200.0 mg/kg/injection, schedule: Q01DX001 (ip), vehicle: saline with Tween-80
[2] = T/C endpoint: mean survival time, dose: 400.0 mg/kg/injection, schedule: Q01DX001 (ip), vehicle: saline with Tween-80
[3] = T/C endpoint: mean survival time, dose: 200.0 mg/kg/injection, schedule: Q01DX009 (ip), vehicle: saline with Tween-80
[4] = T/C endpoint: mean survival time, dose: 400.0 mg/kg/injection, schedule: Q04DX003 (ip), vehicle: saline
[5] = T/C endpoint: mean survival time, dose: 400.0 mg/kg/injection, schedule: Q01DX001 (ip), vehicle: saline
[6] = T/C endpoint: mean survival time, dose: 100.0 mg/kg/injection, schedule: Q04DX003 (ip), vehicle: saline
[7] = T/C endpoint: mean survival time, dose: 200.0 mg/kg/injection, schedule: Q04DX003 (ip), vehicle: saline
[8] = T/C endpoint: mean survival time, dose: 200.0 mg/kg/injection, schedule: Q04DX003 (ip), vehicle: saline with Tween-80
[9] = T/C endpoint: mean survival time, dose: 400.0 mg/kg/injection, schedule: Q04DX003 (ip), vehicle: saline with Tween-80

CC(C)=CC(=O)OC1C2C(C)=CC(=O)C(O)C2(C)C2C3(O)OCC24C(CC(=O)OC14)C(C)C3O (stereo unspecified)
T/C (T/C endpoint: mean survival time, dose: 0.25 mg/kg/injection, schedule: Q01DX009 (ip), vehicle: saline with Tween-80): 128 % of control
T/C (T/C endpoint: mean survival time, dose: 0.5 mg/kg/injection, schedule: Q01DX009 (ip), vehicle: saline with Tween-80): 133 % of control [5 of 6 alive]
T/C (T/C endpoint: mean survival time, dose: 1.0 mg/kg/injection, schedule: Q01DX009 (ip), vehicle: saline with Tween-80): 133 % of control
T/C (T/C endpoint: mean survival time, dose: 2.0 mg/kg/injection, schedule: Q01DX009 (ip), vehicle: distilled water + Tween-80): 130 % of control [4 of 6 alive]
T/C (T/C endpoint: median survival time, dose: 0.25 mg/kg/injection, schedule: Q01DX009 (ip), vehicle: distilled water + Tween-80 + alcohol): 125 % of control
T/C (T/C endpoint: median survival time, dose: 0.5 mg/kg/injection, schedule: Q01DX009 (ip), vehicle: distilled water + Tween-80 + alcohol): 132 and 138 % of control
T/C (T/C endpoint: median survival time, dose: 1.0 mg/kg/injection, schedule: Q01DX009 (ip), vehicle: distilled water + Tween-80 + alcohol): 130, 134, 141 % of control
T/C (T/C endpoint: median survival time, dose: 2.0 mg/kg/injection, schedule: Q01DX009 (ip), vehicle: distilled water + Tween-80 + alcohol): 139 and 144 % of control
survivor count (T/C endpoint: median survival time, dose: 4.0 mg/kg/injection, schedule: Q01DX009 (ip), vehicle: distilled water + Tween-80 + alcohol): 4 of 6

CC(CCOP(=O)(N(CCCl)CCCl)N1CC1)OCc1ccccc1 (stereo unspecified)
T/C (T/C endpoint: mean survival time, dose: 25.0 mg/kg/injection, schedule: Q01DX001 (ip), vehicle: other): 131 % of control
T/C (T/C endpoint: mean survival time, dose: 50.0 mg/kg/injection, schedule: Q01DX001 (ip), vehicle: other): 125 % of control
T/C (T/C endpoint: mean survival time, dose: 75.0 mg/kg/injection, schedule: Q01DX001 (ip), vehicle: other): 135 % of control
survivor count (T/C endpoint: mean survival time, dose: 100.0 mg/kg/injection, schedule: Q01DX001 (ip), vehicle: other): 6 of 6
survivor count (T/C endpoint: mean survival time, dose: 200.0 mg/kg/injection, schedule: Q01DX001 (ip), vehicle: other): 6 of 6
survivor count (T/C endpoint: mean survival time, dose: 400.0 mg/kg/injection, schedule: Q01DX001 (ip), vehicle: other): 5 of 6

O=[N+]([O-])c1ccc(S(=O)(=O)C/C=C/CCl)c([N+](=O)[O-])c1
survivor count (T/C endpoint: mean survival time, dose: 100.0 mg/kg/injection, schedule: Q01DX009 (ip), vehicle: saline with Tween-80): 3 of 6
survivor count [1]: 2 of 6
survivor count [2]: 1 of 6

CC(O)C[As](=O)(O)c1ccccc1Cl (stereo unspecified)
survivor count (T/C endpoint: mean survival time, dose: 25.0 mg/kg/injection, schedule: Q04DX003 (ip), vehicle: saline): 2 of 6

CC(=O)Nc1ccc(/C=N/NC(=O)CNC(=O)Nc2cccc([N+](=O)[O-])c2)cc1
survivor count (T/C endpoint: mean survival time, dose: 50.0 mg/kg/injection, schedule: Q01DX009 (ip), vehicle: saline with Tween-80): 2 of 3
survivor count [3]: 3 of 3

NC(=O)CCc1ccnc2ccccc12
survivor count (T/C endpoint: mean survival time, dose: 400.0 mg/kg/injection, schedule: Q04DX002 (ip), vehicle: saline with Tween-80): 1 of 3

CNP1(N(C)C)=NP(NC)(N(C)C)=NP(NC)(N(C)C)=N1 (stereo unspecified)
survivor count [4]: 1 of 6

CCCC[P+](CCCC)(CCCC)CC(=O)C[P+](CCCC)(CCCC)CCCC
survivor count (T/C endpoint: mean survival time, dose: 100.0 mg/kg/injection, schedule: Q01DX001 (ip), vehicle: saline): 0 of 6
survivor count (T/C endpoint: mean survival time, dose: 200.0 mg/kg/injection, schedule: Q01DX001 (ip), vehicle: saline): 0 of 6
survivor count [5]: 0 of 6

Cc1cccc(Nc2c3ccccc3nc3ccccc23)c1
survivor count [1]: 2 of 6
survivor count [2]: 0 of 6

CCOC(=O)C[n+]1ccccc1
survivor count [4]: 0 of 6 and 1 of 6

CCN(CC)CCCNc1ncnc(Cl)c1C(=C(C)C)c1ccccc1
survivor count [5]: 0 of 6

CC(=O)Nc1ccncn1
survivor count (T/C endpoint: mean survival time, dose: 100.0 mg/kg/injection, schedule: Q04DX002 (ip), vehicle: saline with Tween-80): 1 of 3

CCC(CC)n1c(C)cc(=O)n1C(CC)CC
survivor count (T/C endpoint: mean survival time, dose: 40.0 mg/kg/injection, schedule: Q01DX001 (ip), vehicle: saline): 2 of 6
survivor count (T/C endpoint: mean survival time, dose: 80.0 mg/kg/injection, schedule: Q01DX001 (ip), vehicle: saline): 0 of 6

CCC(=O)N(C)[C@@H](C)C(=O)O[C@H]1CC(=O)N(C)c2cc(cc(OC)c2Cl)C/C(C)=C/C=C[C@@H](OC)[C@@]2(O)C[C@H](OC(=O)N2)[C@@H](C)[C@@H]2O[C@@]12C
T/C (T/C endpoint: mean survival time, dose: 10.0 micrograms/kg/injection, schedule: Q01DX009 (ip), vehicle: saline + alcohol): 130 % of control
survivor count (T/C endpoint: mean survival time, dose: 15.0 micrograms/kg/injection, schedule: Q01DX009 (ip), vehicle: saline + alcohol): 5 of 6
survivor count (T/C endpoint: mean survival time, dose: 30.0 micrograms/kg/injection, schedule: Q01DX009 (ip), vehicle: saline + alcohol): 2 of 6
survivor count (T/C endpoint: mean survival time, dose: 60.0 micrograms/kg/injection, schedule: Q01DX009 (ip), vehicle: saline + alcohol): 2 of 6

CC(/C=C/c1ccccc1)=Nc1ccccc1
survivor count (T/C endpoint: median survival time, dose: 400.0 mg/kg/injection, schedule: Q01DX009 (ip), vehicle: saline with Tween-80): 0 of 6

Nc1ccn([C@@H](C=O)O[C@@H](C=O)CO)c(=O)n1
T/C (T/C endpoint: mean survival time, dose: 50.0 mg/kg/injection, schedule: Q01DX009 (ip), vehicle: saline): 141 % of control
survivor count (T/C endpoint: mean survival time, dose: 200.0 mg/kg/injection, schedule: Q01DX009 (ip), vehicle: saline): 2 of 6
T/C (T/C endpoint: mean survival time, dose: 280.0 mg/kg/injection, schedule: Q01DX001 (ip), vehicle: saline): 137 % of control
survivor count (T/C endpoint: mean survival time, dose: 560.0 mg/kg/injection, schedule: Q01DX001 (ip), vehicle: saline): 2 of 7

Cc1c2cc3c(cc2cc2c4cc5c(cc4cc[n+]12)OCO5)OCO3 (tested in a mixture with another compound)
T/C (T/C endpoint: mean survival time, dose: 8.33 mg/kg/injection, schedule: Q04DX003 (ip), vehicle: saline): 128 % of control
T/C (T/C endpoint: mean survival time, dose: 12.5 mg/kg/injection, schedule: Q04DX003 (ip), vehicle: saline): 125, 128, 129 % of control
survivor count [6]: 6 of 6
survivor count [7]: 1 of 6
survivor count [4]: 0 of 6

CCCCCCCCCCCC(=O)/C=C/Sc1n[nH]c(=O)[nH]c1=O
survivor count (T/C endpoint: mean survival time, dose: 200.0 mg/kg/injection, schedule: Q01DX005 (ip), vehicle: distilled water + Tween-80): 2 of 6

COC1OC(OC)[CH]([Hg][Cl])C1OC (stereo unspecified)
survivor count (T/C endpoint: mean survival time, dose: 100.0 mg/kg/injection, schedule: Q04DX003 (ip), vehicle: saline with Tween-80): 1 of 6
survivor count [8]: 0 of 6
survivor count [9]: 0 of 6

CC1(C)N=C(N)N=C(N)N1c1cccc(OCCOc2cccc(N)c2)c1
survivor count (T/C endpoint: mean survival time, dose: 100.0 mg/kg/injection, schedule: Q01DX001 (ip), vehicle: Klucel (hydroxypropylcellulose) (HPC)): 1 of 3

Nc1ncnc(N)c1NC(=O)c1cccc(Cl)c1
survivor count [8]: 0 of 6
survivor count [9]: 1 of 6

CC(=O)OCC1OC(n2ncnc2CBr)C(OC(C)=O)C(OC(C)=O)C1OC(C)=O (stereo unspecified)
survivor count (T/C endpoint: median survival time, dose: 100.0 mg/kg/injection, schedule: Q01DX005 (ip), vehicle: distilled water + Tween-80): 0 of 6
survivor count (T/C endpoint: median survival time, dose: 200.0 mg/kg/injection, schedule: Q01DX005 (ip), vehicle: distilled water + Tween-80): 0 of 6

FC(F)(F)c1cccc(C(OCCN2CCCC2)c2ccccc2)c1 (stereo unspecified)
survivor count [6]: 0 of 6
survivor count [7]: 0 of 6
survivor count [4]: 0 of 6

CCCC(=O)C1=C(O)C(CC2=C(O)C(C)(C)C(=O)C(C(=O)CCC)=C2O)=C(O)C(C)(C)C1=O
survivor count [5]: 0 of 6

CC(=O)Oc1ccc(CC2N=C(c3ccccc3)OC2=O)cc1 (stereo unspecified)
survivor count [3]: 3 of 3
